Source: PMC3790753
Positions count from the first letter of the chain named. These are yes or no findings as the source states them, for the method shown. Some results given as binding are weak or reduced against the parent protein; the word gives no strength. Where a sequence is shown, tags or fusion partners need not be part of it.

What was measured:
Assay in all cases: two-hybrid; Matchmaker 3 (Clontech), baits in pGBKT7, preys in pGADT7, Y2H Gold yeast; growth on media lacking leucine, tryptophan and histidine
[1] = target: T1, plakophilin-1 HD (amino acids 1-234), Gal4 DNA binding domain fusion (UniProt Q13835)
T1 sequence: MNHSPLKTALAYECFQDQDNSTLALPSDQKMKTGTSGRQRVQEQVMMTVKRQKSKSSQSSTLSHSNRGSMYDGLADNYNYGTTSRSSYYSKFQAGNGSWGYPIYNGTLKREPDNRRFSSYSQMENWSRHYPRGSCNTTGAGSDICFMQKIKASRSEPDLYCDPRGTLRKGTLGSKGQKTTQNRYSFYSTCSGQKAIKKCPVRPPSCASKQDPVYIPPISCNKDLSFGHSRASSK

[2] = target: T2, plakophilin-2 HD (amino acids 1-342), Gal4 DNA binding domain fusion (UniProt Q99959)
T2 sequence: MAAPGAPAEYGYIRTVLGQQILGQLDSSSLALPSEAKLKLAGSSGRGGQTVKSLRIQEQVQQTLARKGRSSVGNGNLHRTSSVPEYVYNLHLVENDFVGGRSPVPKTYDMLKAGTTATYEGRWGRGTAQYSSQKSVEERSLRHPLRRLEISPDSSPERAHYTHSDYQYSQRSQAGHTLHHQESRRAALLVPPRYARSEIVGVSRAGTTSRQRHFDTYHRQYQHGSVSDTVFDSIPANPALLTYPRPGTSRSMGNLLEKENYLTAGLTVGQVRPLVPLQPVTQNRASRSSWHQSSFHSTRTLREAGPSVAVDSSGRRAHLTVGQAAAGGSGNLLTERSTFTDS

[3] = target: T3, plakophilin-3 HD (amino acids 1-307), Gal4 DNA binding domain fusion (human) (UniProt Q9Y446)
T3 sequence: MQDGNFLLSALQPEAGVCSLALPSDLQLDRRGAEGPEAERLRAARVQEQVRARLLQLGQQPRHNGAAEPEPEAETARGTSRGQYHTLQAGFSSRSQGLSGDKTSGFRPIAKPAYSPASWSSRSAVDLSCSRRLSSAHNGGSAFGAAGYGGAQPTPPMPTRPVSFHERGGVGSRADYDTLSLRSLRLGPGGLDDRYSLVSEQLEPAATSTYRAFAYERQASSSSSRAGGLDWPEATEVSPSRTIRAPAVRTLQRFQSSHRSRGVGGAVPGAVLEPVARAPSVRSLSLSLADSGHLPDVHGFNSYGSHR

[4] = target: T4, plakophilin-3 HD S285A, Gal4 DNA binding domain fusion (human) (UniProt Q9Y446)
T4 sequence: T3 sequence with S285A

Measured: binding

B1: desmoplakin (amino acids 1-584) fused to the Gal4 activation domain (domain or fragment, UniProt P15924 1-584)
chain: MSCNGGSHPRINTLGRMIRAESGPDLRYEVTSGGGGTSRMYYSRRGVITDQNSDGYCQTGTMSRHQNQNTIQELLQNCSDCLMRAELIVQPELKYGDGIQLTRSRELDECFAQANDQMEILDSLIREMRQMGQPCDAYQKRLLQLQEQMRALYKAISVPRVRRASSKGGGGYTCQSGSGWDEFTKHVTSECLGWMRQQRAEMDMVAWGVDLASVEQHINSHRGIHNSIGDYRWQLDKIKADLREKSAIYQLEEEYENLLKASFERMDHLRQLQNIIQATSREIMWINDCEEEELLYDWSDKNTNIAQKQEAFSIRMSQLEVKEKELNKLKQESDQLVLNQHPASDKIEAYMDTLQTQWSWILQITKCIDVHLKENAAYFQFFEEAQSTEAYLKGLQDSIRKKYPCDKNMPLQHLLEQIKELEKEREKILEYKRQVQNLVNKSKKIVQLKPRNPDYRSNKPIILRALCDYKQDQKIVHKGDECILKDNNERSKWYVTGPGGVDMLVPSVGLIIPPPNPLAVDLSCKIEQYYEAILALWNQLYINMKSLVSWHYCMIDIEKIRAMTIAKLKTMRQEDYMKTIADLE
binds: [1] | [2] | [3] | [4]
